# Measured values from article PMC12431657, “Discovery and mechanistic insights of dibenzoylmethane as a broad spectrum inhibitor of coronavirus” (PLOS Pathogens, 2025).
# Where a name gives a salt, the structure may show the parent alone. Read-outs that look alike come from different tables or passages of the source. The whole screen tested about 3,300 compounds, of which about 95 (3%) showed an effect of 50% or more. This is one part of the list.
# System: HCoV-229E
# Set-up: species or system Huh-7; HTS, protection from HCoV-229E induced cell death, luminescent cell viability (CellCounting-Lite 2.0), inhibition rate
# Conditions: 24 h post infection, 1 h compound pre-incubation, 10 µM, inhibitor
Structure (SMILES),229E Inhibition rate [%],"229E Inhibition rate (229E Inhibition rate, 24 h) [%]"
CC(C)=CCC/C(C)=C/CC/C(C)=C/CC/C(C)=C/CC1=C(C)C(=O)c2ccccc2C1=O [Menaquinone-4],4.1,
O=c1c(O)c(-c2ccc(O)c(O)c2)oc2cc(O[C@@H]3O[C@H](CO)[C@@H](O)[C@H](O)[C@H]3O)cc(O)c12 [Quercimeritrin],27.7,
CCCCCC(=O)CC(=O)NC1CCOC1=O (racemic) [N-(3-Oxooctanoyl)-DL-homoserine lactone],12,
C=CCS[S+]([O-])CC=C (centres unmarked) [Allicin],20.7,
COc1cc([C@H]2Oc3ccc(-c4cc(=O)c5c(O)cc(O)cc5o4)cc3O[C@@H]2CO)ccc1O (racemic) [(Rac)-Hydnocarpin],0,
O=C(O)[C@@H]1CCN1 [L-Azetidine-2-carboxylic acid],11.4,
COc1c(/C=C/C(=O)c2ccc(O)cc2)ccc(O)c1O [Licochalcone B],25.4,
Cc1cnccn1 [2-Methylpyrazine],12.8,
O=C(/C=C/c1ccc(O)cc1)c1ccc(O[C@@H]2O[C@H](CO)[C@@H](O)[C@H](O)[C@H]2O)cc1O [Neoisoliquiritin],24.9,
CC(=O)OC[C@H]1O[C@@H](OC[C@H]2O[C@@H](OC(=O)[C@]34CCC(C)(C)C[C@H]3C3=CC[C@@H]5[C@@]6(C)CC[C@H](O[C@@H]7OC[C@H](O)[C@H](O)[C@H]7O[C@@H]7O[C@H](CO)[C@@H](O)[C@H](O)[C@H]7O)C(C)(C)[C@@H]6CC[C@@]5(C)[C@]3(C)CC4)[C@H](O)[C@@H](O)[C@@H]2O)[C@H](O)[C@@H](O)[C@@H]1O[C@@H]1O[C@@H](C)[C@H](O)[C@@H](O)[C@H]1O [Acanthopanaxoside B],6.2,
Cc1ccc(CO)o1 [5-Methyl-2-furanmethanol],15.6,
C[C@]12CC[C@@H]3c4ccc(O)cc4CC[C@H]3[C@@H]1C[C@@H](O)[C@@H]2O [Estriol],47.7,
COC(=O)Cc1c[nH]c2ccccc12 [Methyl 2-(1H-indol-3-yl)acetate],38.3,
O=C1CCC[C@@H]2[C@H]3CCCN4CCC[C@@H](CN12)[C@H]34 [Allomatrine],8.4,
Cc1cccc2c3c(ccc12)C1=C(C(=O)C3=O)[C@@H](C)CO1 [Dihydrotanshinone I],18.1,
C=C[C@H]1[C@H](O[C@@H]2O[C@H](CO)[C@@H](O)[C@H](O)[C@H]2O)OC=C(C(=O)OC)[C@H]1CCOC(=O)c1cccc(O[C@@H]2O[C@H](CO)[C@@H](O)[C@H](O)[C@H]2O)c1O [Depressine],0,
O=C(O)c1ccc2ccccc2n1 [Quinoline-2-carboxylic acid],10.5,
OC[C@H]1O[C@@H](O[C@H]2[C@H](O)[C@@H](O)[C@@H](O)O[C@@H]2CO)[C@H](O)[C@@H](O)[C@H]1O [α-Lactose],8.4,
COc1ccc(-c2cc(=O)c3c(O)cc(O[C@@H]4O[C@H](CO[C@@H]5O[C@@H](C)[C@H](O)[C@@H](O)[C@H]5O)[C@@H](O)[C@H](O)[C@H]4O)cc3o2)cc1O [Diosmin],13.1,
COc1cc(O)cc(/C=C/c2ccccc2)c1 [Pinosylvin monomethyl ether],0,
CC(C)CCCC(C)CCCC(C)CCCCC(C)CCCC(C)CCCC(C)C (centres unmarked) [Squalane],8.8,

Structure (SMILES),229E Inhibition rate [%],"229E Inhibition rate (229E Inhibition rate, 24 h) [%]"
COc1ccc(-c2oc3c(CC=C(C)C)c(O)cc(O)c3c(=O)c2O[C@@H]2O[C@@H](C)[C@H](O)[C@@H](O)[C@H]2O[C@@H]2O[C@H](CO)[C@@H](O)[C@H](O)[C@H]2O)cc1 [Sagittatoside A],16.7,
COc1cc2c(cc1O)-c1cc3ccc(OC)c(OC)c3c[n+]1CC2 [Columbamine],12.8,
CC1=C[C@]2(O)O[C@@]3(CC2=C(C)C)[C@@H](C)CC[C@@H]13 [Curcumenol],64.3,
CCCCCCCCCCCCO [1-Dodecanol],28.5,
CC1=C(CC[C@H](C)CO[C@@H]2O[C@H](CO)[C@@H](O)[C@H](O)[C@H]2O)O[C@H]2C[C@H]3[C@@H]4CC[C@@H]5C[C@@H](O[C@@H]6O[C@H](CO)[C@H](O)[C@H](O)[C@H]6O[C@@H]6O[C@H](CO)[C@@H](O)[C@H](O)[C@H]6O)CC[C@]5(C)[C@H]4CC[C@]3(C)[C@@H]12 [Timosaponin B III],11.6,
O=c1c2cc(O)c(O)cc2oc2cc(O)c([C@@H]3O[C@H](CO)[C@@H](O)[C@H](O)[C@H]3O)c(O)c12 [Mangiferin],33.2,
CC(C)=CCc1c(O[C@@H]2O[C@H](CO)[C@@H](O)[C@H](O)[C@H]2O)cc(O)c2c(=O)c(O[C@@H]3O[C@@H](C)[C@H](O)[C@@H](O)[C@H]3O)c(-c3ccc(O)cc3)oc12 [Epimedoside A],15.1,
COc1cc(/C=C/C(=O)O)cc(O)c1O [5-Hydroxyferulic acid],7.5,
C=C1C[C@]23C[C@@]1(O)CC[C@H]2[C@@]12C=C[C@H](O)[C@@](C)(C(=O)O1)[C@H]2[C@@H]3C(=O)O [Gibberellic acid],17.7,
"CC1(C)C=CC(=O)C1 [4,4-Dimethyl-2-cyclopenten-1-one]",4.8,
CN1[C@@H](CC(=O)c2ccccc2)CCC[C@H]1C[C@H](O)c1ccccc1 [Lobeline (hydrochloride)],10.6,
O[C@H]1[C@H](O)[C@H](O)[C@@H](O)[C@H](O)[C@H]1O [D-chiro-Inositol],13.8,
COc1cc2oc(-c3ccc(O)cc3)cc(=O)c2c(O)c1[C@@H]1O[C@H](CO)[C@@H](O)[C@H](O)[C@H]1O[C@@H]1O[C@H](CO)[C@@H](O)[C@H](O)[C@H]1O [Spinosin],16.9,
NCCc1c[nH]cn1 [Histamine (dihydrochloride)],,36.5
C[N+]1(C)CCC[C@H]1C(=O)[O-] [Stachydrine],,13.8
Nc1[nH]cnc2ncnc1-2 [Adenine monohydrochloride hemihydrate],,9.2
C[C@@H]1CC[C@@H]2O[C@@]23C(=O)C(=O)[C@@H]2[C@@H](C2(C)C)[C@@]13C [Kanshone C],23.6,
COC1=C2C[C@@H](C)C[C@H](OC)[C@H](O)[C@@H](C)/C=C(\C)[C@H](OC(N)=O)[C@@H](OC)/C=C\C=C(/C)C(=O)NC(=CC1=O)C2=O [Geldanamycin],19.9,
CC(=O)c1c(O)c(C)c(O)c2c1OC1=CC(=O)C(C(C)=O)C(=O)C12C (centres unmarked) [Usnic acid],13.1,
C[C@H]1CC[C@@]2(OC1)O[C@H]1C[C@H]3[C@@H]4CC[C@@H]5C[C@@H](O[C@@H]6O[C@H](CO)[C@H](O)[C@H](O)[C@H]6O)CC[C@]5(C)[C@H]4CC[C@]3(C)[C@H]1[C@@H]2C [Timosaponin A1],0,
Nc1nc(N)c(O[C@@H]2O[C@H](CO)[C@@H](O)[C@H](O)[C@H]2O)c(=O)[nH]1 [Vicine],9,

# Structures shown so far that have four or more nitrogen atoms, in the order listed:
Structure (SMILES),229E Inhibition rate [%],"229E Inhibition rate (229E Inhibition rate, 24 h) [%]"
Nc1[nH]cnc2ncnc1-2 [Adenine monohydrochloride hemihydrate],,9.2
Nc1nc(N)c(O[C@@H]2O[C@H](CO)[C@@H](O)[C@H](O)[C@H]2O)c(=O)[nH]1 [Vicine],9,

# No new results follow: an excerpt of the list.
Structure (SMILES),229E Inhibition rate [%],"229E Inhibition rate (229E Inhibition rate, 24 h) [%]"
NCCc1c[nH]cn1 [Histamine (dihydrochloride)],,36.5
C[N+]1(C)CCC[C@H]1C(=O)[O-] [Stachydrine],,13.8

# Additional compounds follow.

Structure (SMILES),229E Inhibition rate [%],"229E Inhibition rate (229E Inhibition rate, 24 h) [%]"
C[C@]12CC[C@@H]3c4ccc(O)cc4CC[C@H]3[C@@H]1CCC2=O [Estrone],34.3,
O=C1C=CCO1 [2(5H)-Furanone],8.7,
OC1CCN2Cc3ccccc3N=C12 (racemic) [(±)-Vasicine],9.2,
COC(=O)C1CCCCC1 [Methyl cyclohexanecarboxylate],16.8,
O=C1c2ccccc2C(=O)c2c(O)cccc21 [1-Hydroxyanthraquinone],21.2,
CN(C)[C@@H]1C(O)=C(C(N)=O)C(=O)[C@@]2(O)C(O)=C3C(=O)c4c(O)ccc(Cl)c4[C@@](C)(O)[C@H]3C[C@@H]12 [Chlortetracycline (hydrochloride)],15.2,
COC(=O)Cc1ccc(C(C)(C)C)cc1 [Methyl p-tert-butylphenylacetate],0,
N[C@@H](CCC(=O)O)C(=O)O [L-Glutamic acid (monosodium salt)],,12
COc1cc(O)cc(O)c1C(=O)/C=C/c1ccc(O)cc1 [Helichrysetin],44.2,
CC(C)=CCC/C(C)=C/COc1c2occc2cc2ccc(=O)oc12 [8-Geranyloxypsoralen],39.1,
COc1cc(CCC(C)=O)ccc1O [Zingerone],15.2,
CCCC[C@@H]1OC(=O)C2=C1CCC=C2 [Senkyunolide A],19.4,
COc1ccccc1O [Guaiacol],13.6,
O=C(O)CCCC(O)C(=O)O (centres unmarked) [2-Hydroxyadipic acid],14.9,
O=C(/C=C/c1ccc(O[C@@H]2O[C@H](CO)[C@@H](O)[C@H](O)[C@H]2O)cc1)c1ccc(O)cc1O [Isoliquiritin],27.7,
CCOC(=O)C1=C[C@]2(CC)CCCN3CCc4c(n1c1ccccc41)[C@@H]32 [Vinpocetine],50,
O=C(O)[C@@H]1CCCN1 [L-Proline],14.9,
Cn1c(=O)ccn([C@@H]2O[C@H](CO)[C@@H](O)[C@H]2O)c1=O [3-Methyluridine],46.6,
O=C(O)C1CSSC1 [Asparagusic acid],15.6,
CC1(C)CC[C@]2(C(=O)O)CC[C@]3(C)C(=CC[C@@H]4[C@@]5(C)C[C@H](O)[C@H](O)[C@@](C)(CO)[C@@H]5CC[C@]43C)[C@@H]2C1 [Bayogenin],12.7,
